Measurements reported in PMC7583906, “Functional Recovery of a GCDH Variant Associated to Severe Deflavinylation—Molecular Insights into Potential Beneficial Effects of Riboflavin Supplementation in Glutaric Aciduria-Type I Patients” (International Journal of Molecular Sciences, 2020).
These are yes or no findings as the source states them, for the method shown.

Target: GCDH-p.Val400Met clinical variant (human) (UniProt Q92947)
Experiment: SEC; Superdex 200 10/300 GL, 10 mM HEPES pH 7.8, 150 mM NaCl, typically 0.5 mg applied; apoprotein (no FAD bound) as purified; Gaussian deconvolution of the profile; both purified

B1: GCDH-p.Val400Met clinical variant (enzyme, human)
chain: EFDWQDPLVLEEQLTTDEILIRDTFRTYCQERLMPRILLANRNEVFHREIISEMGELGVLGPTIKGYGCAGVSSVAYGLLARELERVDSGYRSAMSVQSSLVMHPIYAYGSEEQRQKYLPQLAKGELLGCFGLTEPNSGSDPSSMETRAHYNSSNKSYTLNGTKTWITNSPMADLFVVWARCEDGCIRGFLLEKGMRGLSAPRIQGKFSLRASATGMIIMDGVEVPEENVLPGASSLGGPFGCLNNARYGIAWGVLGASEFCLHTARQYALDRMQFGVPLARNQLIQKKLADMLTEITLGLHACLQLGRLKDQDKAAPEMVSLLKRNNCGKALDIARQARDMLGGNGISDEYHMIRHAMNLEAVNTYEGTHDIHALILGRAITGIQAFTASK
notes: human glutaryl-CoA dehydrogenase (GCDH), disease variant p.Val400Met of glutaric aciduria type I, recombinant; The assays tell the states apart; also called holo GCDH-p.Val400Met; apo GCDH-p.Val400Met; source: E. coli BL21 (DE3), purified (HisTrap HP); holo form from soluble extract incubated overnight with excess FAD, apo form without the FAD incubation
- binding: no binding (condition: apo form, no FAD bound)
